The values below come from the supplement of paper PMC10849652.

The chains behind the UniProt entries cited, without tags or fusion partners. Where a name states a change or a piece, a line headed by the entry shows the natural chain unless it says otherwise.
UniProt Q9Y5Q0: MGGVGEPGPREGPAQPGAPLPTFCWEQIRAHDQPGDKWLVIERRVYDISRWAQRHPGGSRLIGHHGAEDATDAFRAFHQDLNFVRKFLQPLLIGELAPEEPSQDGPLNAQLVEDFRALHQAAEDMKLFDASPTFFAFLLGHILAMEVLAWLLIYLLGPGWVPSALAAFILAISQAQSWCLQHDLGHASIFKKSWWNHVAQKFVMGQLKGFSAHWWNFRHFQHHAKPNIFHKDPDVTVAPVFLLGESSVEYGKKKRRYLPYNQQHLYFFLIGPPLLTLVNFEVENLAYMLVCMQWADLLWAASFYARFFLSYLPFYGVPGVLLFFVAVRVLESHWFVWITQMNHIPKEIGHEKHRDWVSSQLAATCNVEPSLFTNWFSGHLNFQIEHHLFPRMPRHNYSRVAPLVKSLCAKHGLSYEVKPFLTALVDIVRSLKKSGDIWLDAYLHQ
UniProt Q96KP1: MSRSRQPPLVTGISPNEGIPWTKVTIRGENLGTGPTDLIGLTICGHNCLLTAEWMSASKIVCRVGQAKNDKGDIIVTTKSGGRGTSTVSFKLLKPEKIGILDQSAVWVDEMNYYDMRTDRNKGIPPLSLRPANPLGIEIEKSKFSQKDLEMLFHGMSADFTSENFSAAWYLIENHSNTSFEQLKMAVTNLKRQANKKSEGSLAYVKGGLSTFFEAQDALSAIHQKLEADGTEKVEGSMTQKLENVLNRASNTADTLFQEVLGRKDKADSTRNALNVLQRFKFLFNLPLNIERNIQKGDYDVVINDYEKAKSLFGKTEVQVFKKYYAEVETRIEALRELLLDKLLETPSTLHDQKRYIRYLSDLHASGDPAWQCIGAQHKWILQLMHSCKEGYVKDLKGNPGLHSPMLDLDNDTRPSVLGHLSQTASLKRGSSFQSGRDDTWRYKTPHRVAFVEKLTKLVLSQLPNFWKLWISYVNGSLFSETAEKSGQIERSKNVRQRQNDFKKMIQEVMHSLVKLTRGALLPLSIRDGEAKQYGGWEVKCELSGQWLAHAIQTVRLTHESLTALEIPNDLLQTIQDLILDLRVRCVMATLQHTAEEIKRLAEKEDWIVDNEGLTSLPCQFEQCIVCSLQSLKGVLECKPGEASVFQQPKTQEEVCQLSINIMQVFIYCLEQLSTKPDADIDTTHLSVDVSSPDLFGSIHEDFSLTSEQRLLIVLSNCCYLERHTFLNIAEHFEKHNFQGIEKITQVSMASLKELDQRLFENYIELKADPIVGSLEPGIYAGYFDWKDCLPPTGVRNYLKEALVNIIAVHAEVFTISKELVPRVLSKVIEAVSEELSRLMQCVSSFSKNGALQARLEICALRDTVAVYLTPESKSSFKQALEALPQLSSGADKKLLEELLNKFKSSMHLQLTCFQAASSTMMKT
UniProt Q9NZB2: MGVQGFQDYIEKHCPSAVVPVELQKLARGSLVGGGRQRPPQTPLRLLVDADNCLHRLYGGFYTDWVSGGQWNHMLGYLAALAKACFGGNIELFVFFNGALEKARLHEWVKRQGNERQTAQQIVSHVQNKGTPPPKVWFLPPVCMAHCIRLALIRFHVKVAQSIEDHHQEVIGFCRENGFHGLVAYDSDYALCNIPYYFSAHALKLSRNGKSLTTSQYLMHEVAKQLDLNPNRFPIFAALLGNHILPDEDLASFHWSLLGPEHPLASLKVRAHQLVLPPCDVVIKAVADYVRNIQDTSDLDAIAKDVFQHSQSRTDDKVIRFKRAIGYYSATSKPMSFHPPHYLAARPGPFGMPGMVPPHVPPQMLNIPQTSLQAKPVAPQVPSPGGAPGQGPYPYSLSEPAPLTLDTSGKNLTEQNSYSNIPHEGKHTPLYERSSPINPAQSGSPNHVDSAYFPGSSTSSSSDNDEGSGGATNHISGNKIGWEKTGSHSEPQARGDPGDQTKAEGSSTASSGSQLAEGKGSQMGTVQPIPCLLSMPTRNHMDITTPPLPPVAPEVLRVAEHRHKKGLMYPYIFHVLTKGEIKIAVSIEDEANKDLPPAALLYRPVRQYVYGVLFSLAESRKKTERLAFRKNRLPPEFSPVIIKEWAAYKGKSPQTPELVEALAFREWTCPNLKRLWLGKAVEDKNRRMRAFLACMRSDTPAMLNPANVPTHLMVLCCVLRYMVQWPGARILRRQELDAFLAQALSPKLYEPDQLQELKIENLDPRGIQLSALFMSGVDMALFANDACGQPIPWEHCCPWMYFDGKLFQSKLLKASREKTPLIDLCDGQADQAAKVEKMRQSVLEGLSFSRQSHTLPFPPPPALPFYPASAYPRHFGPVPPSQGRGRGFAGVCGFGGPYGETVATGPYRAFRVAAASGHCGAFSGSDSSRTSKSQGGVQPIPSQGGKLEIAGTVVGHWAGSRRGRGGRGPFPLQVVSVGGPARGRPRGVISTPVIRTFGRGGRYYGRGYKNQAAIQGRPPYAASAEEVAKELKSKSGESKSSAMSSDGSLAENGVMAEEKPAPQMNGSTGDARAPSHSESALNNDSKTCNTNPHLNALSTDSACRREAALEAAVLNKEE
UniProt Q96A26: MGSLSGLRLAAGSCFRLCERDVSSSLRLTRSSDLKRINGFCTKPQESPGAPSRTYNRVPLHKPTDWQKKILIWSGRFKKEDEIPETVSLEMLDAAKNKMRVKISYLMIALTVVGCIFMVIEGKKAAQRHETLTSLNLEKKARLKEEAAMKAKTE
UniProt Q9NPD3, whole entry, looked up: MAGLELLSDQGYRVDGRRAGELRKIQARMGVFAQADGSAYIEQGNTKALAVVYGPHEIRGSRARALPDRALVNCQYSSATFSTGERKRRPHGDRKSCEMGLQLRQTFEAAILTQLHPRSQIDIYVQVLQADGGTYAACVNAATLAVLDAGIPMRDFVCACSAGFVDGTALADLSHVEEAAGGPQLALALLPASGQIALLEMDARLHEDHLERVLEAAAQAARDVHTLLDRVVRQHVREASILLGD
UniProt Q96DF8: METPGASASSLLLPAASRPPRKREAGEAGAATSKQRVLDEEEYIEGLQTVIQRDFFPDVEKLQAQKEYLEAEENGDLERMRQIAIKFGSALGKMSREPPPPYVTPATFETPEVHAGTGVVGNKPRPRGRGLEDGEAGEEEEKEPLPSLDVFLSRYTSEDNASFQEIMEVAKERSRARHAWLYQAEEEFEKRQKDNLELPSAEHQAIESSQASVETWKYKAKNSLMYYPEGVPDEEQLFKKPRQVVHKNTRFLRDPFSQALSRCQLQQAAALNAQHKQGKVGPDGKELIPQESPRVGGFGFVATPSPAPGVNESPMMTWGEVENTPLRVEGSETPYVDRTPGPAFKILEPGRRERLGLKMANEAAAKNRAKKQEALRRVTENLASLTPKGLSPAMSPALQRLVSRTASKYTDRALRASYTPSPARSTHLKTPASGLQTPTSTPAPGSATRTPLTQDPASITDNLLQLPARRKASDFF
UniProt Q9NSI2: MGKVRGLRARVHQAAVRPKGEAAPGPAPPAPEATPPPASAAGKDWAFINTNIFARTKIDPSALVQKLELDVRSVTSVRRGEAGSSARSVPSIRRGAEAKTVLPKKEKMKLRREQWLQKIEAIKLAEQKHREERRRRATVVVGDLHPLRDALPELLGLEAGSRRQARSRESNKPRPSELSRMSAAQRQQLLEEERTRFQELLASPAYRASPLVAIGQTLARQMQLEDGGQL
UniProt P10768: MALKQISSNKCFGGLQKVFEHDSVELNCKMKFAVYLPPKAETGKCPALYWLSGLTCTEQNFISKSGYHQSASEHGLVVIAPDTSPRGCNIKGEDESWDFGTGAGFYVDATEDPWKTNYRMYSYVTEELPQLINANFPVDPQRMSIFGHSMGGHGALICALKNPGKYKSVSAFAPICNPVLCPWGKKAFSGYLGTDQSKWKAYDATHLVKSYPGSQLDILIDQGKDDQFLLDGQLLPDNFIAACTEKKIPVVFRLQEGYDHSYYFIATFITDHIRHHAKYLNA
UniProt Q96E09: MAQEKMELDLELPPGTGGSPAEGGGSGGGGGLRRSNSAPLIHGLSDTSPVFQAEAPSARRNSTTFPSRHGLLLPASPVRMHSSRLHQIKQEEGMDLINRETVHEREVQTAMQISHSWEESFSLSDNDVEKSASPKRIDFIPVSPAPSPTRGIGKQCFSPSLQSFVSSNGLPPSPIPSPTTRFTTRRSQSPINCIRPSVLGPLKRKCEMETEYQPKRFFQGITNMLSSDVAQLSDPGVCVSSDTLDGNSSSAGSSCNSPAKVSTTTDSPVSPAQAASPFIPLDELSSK
UniProt Q9NRY5: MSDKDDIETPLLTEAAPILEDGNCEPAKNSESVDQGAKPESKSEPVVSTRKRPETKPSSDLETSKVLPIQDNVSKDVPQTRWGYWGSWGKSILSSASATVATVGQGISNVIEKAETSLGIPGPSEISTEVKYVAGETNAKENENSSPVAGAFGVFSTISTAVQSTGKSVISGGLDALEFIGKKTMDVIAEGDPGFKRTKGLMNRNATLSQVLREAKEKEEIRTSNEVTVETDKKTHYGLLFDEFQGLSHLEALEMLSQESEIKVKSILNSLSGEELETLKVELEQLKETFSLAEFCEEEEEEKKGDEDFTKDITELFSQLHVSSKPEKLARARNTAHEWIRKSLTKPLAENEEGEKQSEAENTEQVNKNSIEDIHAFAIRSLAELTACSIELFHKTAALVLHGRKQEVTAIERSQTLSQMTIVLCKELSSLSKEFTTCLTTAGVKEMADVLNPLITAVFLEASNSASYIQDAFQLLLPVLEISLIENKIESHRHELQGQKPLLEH
UniProt O60645: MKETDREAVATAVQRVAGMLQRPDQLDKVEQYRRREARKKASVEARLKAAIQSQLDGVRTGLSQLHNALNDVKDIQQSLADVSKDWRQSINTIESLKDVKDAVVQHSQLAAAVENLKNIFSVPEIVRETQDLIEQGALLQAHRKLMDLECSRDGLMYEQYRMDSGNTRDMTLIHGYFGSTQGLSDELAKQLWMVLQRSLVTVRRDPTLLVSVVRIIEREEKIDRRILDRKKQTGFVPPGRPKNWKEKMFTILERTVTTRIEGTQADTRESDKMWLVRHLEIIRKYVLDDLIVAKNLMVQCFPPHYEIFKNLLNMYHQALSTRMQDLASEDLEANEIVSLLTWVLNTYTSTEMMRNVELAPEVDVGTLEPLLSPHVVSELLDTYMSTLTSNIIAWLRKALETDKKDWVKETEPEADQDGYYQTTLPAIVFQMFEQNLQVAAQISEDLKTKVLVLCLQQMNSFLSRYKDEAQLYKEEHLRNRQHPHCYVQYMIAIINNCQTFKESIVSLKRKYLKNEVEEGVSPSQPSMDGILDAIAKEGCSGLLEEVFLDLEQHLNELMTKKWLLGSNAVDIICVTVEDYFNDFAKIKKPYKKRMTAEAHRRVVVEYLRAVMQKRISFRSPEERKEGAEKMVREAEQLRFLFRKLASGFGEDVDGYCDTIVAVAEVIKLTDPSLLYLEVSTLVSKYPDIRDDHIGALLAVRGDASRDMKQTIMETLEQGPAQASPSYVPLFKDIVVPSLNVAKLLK
UniProt Q99504: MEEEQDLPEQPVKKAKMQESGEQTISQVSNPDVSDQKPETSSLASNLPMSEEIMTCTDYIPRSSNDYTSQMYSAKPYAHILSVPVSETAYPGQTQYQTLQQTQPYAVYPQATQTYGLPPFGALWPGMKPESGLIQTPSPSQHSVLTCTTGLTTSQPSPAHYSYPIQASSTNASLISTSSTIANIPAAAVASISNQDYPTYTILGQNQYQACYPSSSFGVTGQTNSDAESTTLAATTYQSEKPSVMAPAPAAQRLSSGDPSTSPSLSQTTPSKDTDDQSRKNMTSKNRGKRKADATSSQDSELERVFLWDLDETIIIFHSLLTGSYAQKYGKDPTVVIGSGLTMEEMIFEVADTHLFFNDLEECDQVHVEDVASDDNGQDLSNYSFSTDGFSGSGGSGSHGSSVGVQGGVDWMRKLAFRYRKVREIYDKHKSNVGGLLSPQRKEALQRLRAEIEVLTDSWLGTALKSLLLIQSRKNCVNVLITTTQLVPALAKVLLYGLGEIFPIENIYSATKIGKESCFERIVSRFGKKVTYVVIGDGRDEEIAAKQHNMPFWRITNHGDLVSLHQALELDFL
UniProt Q96DZ1: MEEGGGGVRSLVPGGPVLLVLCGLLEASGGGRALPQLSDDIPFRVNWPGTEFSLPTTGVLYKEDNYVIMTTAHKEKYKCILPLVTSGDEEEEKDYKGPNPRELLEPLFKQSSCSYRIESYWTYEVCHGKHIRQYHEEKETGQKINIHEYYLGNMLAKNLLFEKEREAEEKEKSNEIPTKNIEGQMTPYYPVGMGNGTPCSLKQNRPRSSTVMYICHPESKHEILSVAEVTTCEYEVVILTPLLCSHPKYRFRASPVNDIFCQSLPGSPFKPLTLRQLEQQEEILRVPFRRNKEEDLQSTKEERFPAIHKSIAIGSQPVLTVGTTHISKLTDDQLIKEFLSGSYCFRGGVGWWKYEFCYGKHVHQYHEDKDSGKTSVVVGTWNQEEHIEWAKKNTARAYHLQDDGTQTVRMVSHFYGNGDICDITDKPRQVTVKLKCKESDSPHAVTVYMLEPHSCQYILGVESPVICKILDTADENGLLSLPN

Some of the results follow.

Compound in the experiment: COc1cc(Nc2ncc3c(n2)-c2ccc(Cl)cc2C(c2c(F)cccc2OC)=NC3)ccc1C(=O)O [alisertib]
Description: log2 fold change, soluble protein after heating vs DMSO (PISA); higher = thermal stabilisation; K562 lysate, 10 uM; active = over 0.2 and 3.5 SD of the protein, either way, in both replicates (recomputed). In outline: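 Log-two fold change in thermal stability relative to solvent controls is reported from duplicates. For each sample, crude K562 extract from dounce-homogenised pellets in PBS pH 7.4 with 1 mM MgCl2, at 1 mg/mL protein, was treated with 10 μM compound for 30 min. Aliquots heated for 3 min across 48°C-58°C were pooled, brought to 0.5% NP-40 at 4°C and cleared at 21,000xg for 90 min. The supernatant was quantified by TMTpro 16plex LC-MS/MS with channel sums equalised.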
Turning to ETNK1 (UniProt Q9HBU6), the log2 fold change is inactive: -0.087.

With FAM83A (UniProt Q86UY5), the log2 fold change is inactive: 0.02.

As for FADS3 (UniProt Q9Y5Q0), the log2 fold change is inactive: 0.

As for EXOC2 (UniProt Q96KP1), the log2 fold change was inactive: 0.

As for FAM120A isoform 6 (UniProt Q9NZB2), the log2 fold change was inactive: -0.005.

On to EXOSC5 (UniProt Q9NQT4), for which the log2 fold change is inactive: 0.002.

On to FAM162A (UniProt Q96A26), for which the log2 fold change is inactive: 0.014.

As to EZH2 isoform 2 (UniProt Q15910), the log2 fold change was inactive: -0.158.

Consider EXOC4 (UniProt Q96A65), for which the log2 fold change is inactive: 0.009.

EXOSC4 (UniProt Q9NPD3): the log2 fold change is inactive: -0.032.

Consider ESS2 (UniProt Q96DF8), for which the log2 fold change is inactive: -0.011.

Consider EXOC6 (UniProt Q8TAG9), for which the log2 fold change was inactive: 0.007.

With FADS1, A0A0A0MR51, the log2 fold change was inactive: -0.008.

For the target F5 (UniProt P12259), the log2 fold change was inactive: 0.133.

Take FAM207A (UniProt Q9NSI2): the log2 fold change was inactive: 0.014.

On to ESD (UniProt P10768), for which the log2 fold change was inactive: -0.02.

As to FAM122A (UniProt Q96E09), the log2 fold change is inactive: 0.029.

With FAM114A2 (UniProt Q9NRY5), the log2 fold change was inactive: 0.127.

For FAM136A (UniProt Q96C01), the log2 fold change was inactive: 0.025.

For the target EXOC3 (UniProt O60645), the log2 fold change is inactive: 0.032.

On to EYA3 (UniProt Q99504), for which the log2 fold change was inactive: -0.011.

On to ERVK3-1, A0A0U1RQV1, for which the log2 fold change was inactive: 0.056.

Turning to ERLEC1 (UniProt Q96DZ1), the log2 fold change was inactive: -0.062.

As to ESYT1 isoform 2 (UniProt Q9BSJ8), the log2 fold change was inactive: -0.001.
